We go through 1 molecule from article PMC1240052.

These are yes or no findings as the source states them, for the method shown. Binding seen in cells or lysates may run through a third protein. Some binding calls cover weakened binding; strength is not graded here.

Assay [1] has as its target L858R mutant human epidermal growth factor receptor (EGFR) (human) (UniProt P00533). Put plainly: co-IP; EGFR precipitated with anti-EGFR conjugated beads from 200 ug lysate of NIH-3T3 cells kept in 0.5% calf serum for 24 h and left unstimulated (no EGF); lysis buffer 50 mM Tris-HCl pH 7.4, 150 mM NaCl, 2.5 mM EDTA, 1% Triton X-100, 0.25% IPEGAL; blot with anti-Shc.
In assay [2] the target is wild-type human epidermal growth factor receptor (EGFR) (human) (UniProt P00533). The assay is described as above.
Assay [3] addresses L858R mutant human epidermal growth factor receptor (EGFR) (human) (UniProt P00533). Put plainly: co-IP; EGFR precipitated with anti-EGFR conjugated beads from 200 ug lysate of NIH-3T3 cells kept in 0.5% calf serum for 24 h and stimulated with 20 ng/ml EGF for 8 min; lysis buffer 50 mM Tris-HCl pH 7.4, 150 mM NaCl, 2.5 mM EDTA, 1% Triton X-100, 0.25% IPEGAL; blot with anti-Shc.
For assay [4], the target named is wild-type human epidermal growth factor receptor (EGFR) (human) (UniProt P00533). Described as above.

B1: adaptor protein Shc (protein, UniProt P98083 1-579)
chain: MDLLPPKPKYNPLRNESLSSLEEGASGSTPPEELPSPSASSLGPILPPLPGDDSPTTLCSFFPRMSNLKLANPAGGRLGPKGEPGKAAEDGEGSAGAALRDSGLLPLLQDMNKLSGGGGRRTRVEGGQLGGEEWTRHGSFVNKPTRGWLHPNDKVMGPGVSYLVRYMGCVEVLQSMRALDFNTRTQVTREAISLVCEAVPGAKGATRRRKPCSRPLSSILGRSNLKFAGMPITLTVSTSSLNLMAADCKQIIANHHMQSISFASGGDPDTAEYVAYVAKDPVNQRACHILECPEGLAQDVISTIGQAFELRFKQYLRNPPKLVTPHDRMAGFDGSAWDEEEEEPPDHQYYNDFPGKEPPLGGVVDMRLREGAARPTLPSAQMSSHLGATLPIGQHAAGDHEVRKQMLPPPPCPGRELFDDPSYVNIQNLDKARQAGGGAGPPNPSLNGSAPRDLFDMKPFEDALRVPPPPQSMSMAEQLQGEPWFHGKLSRREAEALLQLNGDFLVRESTTTPGQYVLTGLQSGQPKHLLLVDPEGVVRTKDHRFESVSHLISYHMDNHLPIISAGSELCLQQPVDRKV
Take B1: the binding result is given as “binds weakly” in assay [1], “no binding (condition: cells without EGF stimulation)” in assay [2], “binds” in assay [3] and “binds” in assay [4].
